One molecule from article PMC12646006 can be followed below.

No constants are given. Whether binding was seen depends on the method and setting. In cells and extracts the contact can be indirect. These calls come from enrichment with a bait or labelling near it, and not all partners need be listed. Where a sequence is shown, tags or fusion partners need not be part of it.

The target in this assay is Flag-3D of CVB3 (RNA-dependent RNA polymerase 3D^pol of Coxsackievirus B3) (Coxsackievirus B3). The assay can be described thus: affinity purification with mass spectrometry; HEK293T cells transfected with Flag-3D for 36 h, then CVB3 (MOI = 5) or mock infection for 18 h; NP40 lysate on anti-Flag magnetic beads, washed 10 times; trypsin, HPLC-MS/MS.

B1: TRIM4 (endogenous, found by mass spectrometry with Flag-3D) (enzyme, UniProt Q9C037 1-500)
chain: MEAEDIQEELTCPICLDYFQDPVSIECGHNFCRGCLHRNWAPGGGPFPCPECRHPSAPAALRPNWALARLTEKTQRRRLGPVPPGLCGRHWEPLRLFCEDDQRPVCLVCRESQEHQTHAMAPIDEAFESYRTGNFDIHVDEWKRRLIRLLLYHFKQEEKLLKSQRNLVAKMKKVMHLQDVEVKNATQWKDKIKSQRMRISTEFSKLHNFLVEEEDLFLQRLNKEEEETKKKLNENTLKLNQTIASLKKLILEVGEKSQAPTLELLQNPKEVLTRSEIQDVNYSLEAVKVKTVCQIPLMKEMLKRFQVAVNLAEDTAHPKLVFSQEGRYVKNTASASSWPVFSSAWNYFAGWRNPQKTAFVERFQHLPCVLGKNVFTSGKHYWEVESRDSLEVAVGVCREDVMGITDRSKMSPDVGIWAIYWSAAGYWPLIGFPGTPTQQEPALHRVGVYLDRGTGNVSFYSAVDGVHLHTFSCSSVSRLRPFFWLSPLASLVIPPVTDRK
For the molecule B1, the binding entry is “binds”.
